Source: article PMC10174690
No constants are given. Whether binding was seen depends on the method and setting. In cells and extracts the contact can be indirect. These calls come from enrichment with a bait or labelling near it, and not all partners need be listed. Where a sequence is shown, tags or fusion partners need not be part of it. Blank lines part the entries; values can stand above or below the molecule they belong to.

Chains of the proteins cited; added tags and fusions are not shown.
UniProt E9QAP7: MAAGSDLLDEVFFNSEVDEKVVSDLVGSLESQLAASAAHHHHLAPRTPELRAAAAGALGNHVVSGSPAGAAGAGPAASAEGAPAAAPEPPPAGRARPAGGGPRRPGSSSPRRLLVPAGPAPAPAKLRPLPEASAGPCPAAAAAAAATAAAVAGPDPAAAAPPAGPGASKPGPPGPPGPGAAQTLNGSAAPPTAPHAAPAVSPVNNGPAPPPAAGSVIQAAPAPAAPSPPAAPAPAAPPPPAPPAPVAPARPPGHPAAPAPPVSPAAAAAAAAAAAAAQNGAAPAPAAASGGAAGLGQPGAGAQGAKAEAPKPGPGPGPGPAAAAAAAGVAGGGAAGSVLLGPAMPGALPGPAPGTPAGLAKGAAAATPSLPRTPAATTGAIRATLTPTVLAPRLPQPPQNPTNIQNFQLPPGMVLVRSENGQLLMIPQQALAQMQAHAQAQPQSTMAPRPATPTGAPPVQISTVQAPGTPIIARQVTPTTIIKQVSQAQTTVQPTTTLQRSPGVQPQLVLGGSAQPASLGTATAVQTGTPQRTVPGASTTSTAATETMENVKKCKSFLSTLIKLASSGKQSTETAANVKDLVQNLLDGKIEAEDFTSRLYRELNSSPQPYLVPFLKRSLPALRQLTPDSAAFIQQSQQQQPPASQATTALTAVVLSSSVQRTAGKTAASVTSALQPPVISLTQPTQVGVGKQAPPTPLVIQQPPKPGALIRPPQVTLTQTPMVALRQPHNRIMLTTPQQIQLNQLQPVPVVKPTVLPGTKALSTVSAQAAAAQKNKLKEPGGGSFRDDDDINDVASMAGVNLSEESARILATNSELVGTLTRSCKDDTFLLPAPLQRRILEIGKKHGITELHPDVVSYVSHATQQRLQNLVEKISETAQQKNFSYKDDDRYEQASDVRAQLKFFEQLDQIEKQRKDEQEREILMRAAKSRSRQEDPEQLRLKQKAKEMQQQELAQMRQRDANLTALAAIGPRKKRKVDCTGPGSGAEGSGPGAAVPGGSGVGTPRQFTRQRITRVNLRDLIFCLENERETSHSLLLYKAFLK
UniProt Q6NZA9: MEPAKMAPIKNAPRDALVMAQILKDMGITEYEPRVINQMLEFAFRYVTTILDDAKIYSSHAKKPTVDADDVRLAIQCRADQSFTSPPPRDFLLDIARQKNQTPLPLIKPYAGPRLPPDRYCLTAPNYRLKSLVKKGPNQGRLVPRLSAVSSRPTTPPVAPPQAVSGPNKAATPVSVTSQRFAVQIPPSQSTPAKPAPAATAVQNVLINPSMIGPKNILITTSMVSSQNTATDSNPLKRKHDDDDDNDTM

Biological target: TAF4 (mouse (endogenous in C64 mESCs)) (UniProt E9QAP7)
Experiment: affinity purification with mass spectrometry; α-TAF4 (Santa Cruz sc-136093) crosslinked to Protein G Dynabeads, overnight at 4°C, with whole cell lysates of C64 mESCs (Lysis Buffer: 200 mM NaCl, 25 mM HEPES, 1 mM MgCl2, 0.2 mM EDTA, 0.5% NP-40; pellet digested with MNase and added); six washes; glycine pH 2.5 elution; mouse IgG IP as control; cells treated with DMSO (control) or IAA (TBP depletion); n=4

binding: binds
Molecule: TAF9b (from UniProt Q6NZA9 1-249)

binding: binds
B1: mAID-TBP (TATA-box binding protein with the minimal auxin-inducible degron tag at the N-terminus) (protein, UniProt P29037 1-316)
chain: MDQNNSLPPYAQGLASPQGAMTPGIPIFSPMMPYGTGLTPQPIQNTNSLSILEEQQRQQQQQQQQQQQQQAVATAAASVQQSTSQQPTQGASGQTPQLFHSQTLTTAPLPGTTPLYPSPMTPMTPITPATPASESSGIVPQLQNIVSTVNLGCKLDLKTIALRARNAEYNPKRFAAVIMRIREPRTTALIFSSGKMVCTGAKSEEQSRLAARKYARVVQKLGFPAKFLDFKIQNMVGSCDVKFPIRLEGLVLTHQQFSSYEPELFPGLIYRMIKPRIVLLIFVSGKVVLTGAKVRAEIYEAFENIYPILKGFRKTT

binding: binds
B2: TAF4b (protein, UniProt G5E8Z2 1-850)
chain: MPAGLTEPAGAAAPVVSSASGAVTMAPVAALPVRVEGTPVALGPVTKAPVSVCVESVAPQPLPAPVGTLVTKVVPVTALPKLGSPRLPAPQIVTVKTPGTTTIQLPANLQLPPGTVLIKSNSGQLMLVSPQQAVTGAKTTSNITPRPAVPANTQTVKICTVPNSSSQLMKKVTVAPVKNLTQIGTTVATTASSTSSGQPVALPSSVITVTPAKLVNTVSTLKSSSLGVLSTPSNDARLKAETSVAAQTALPPTVLENVKKCKNFLSMLIKLACSGSQSPEMGQNVKRLVEQLLDAEIEAEEFTRKLYIELKSAPQPHLVPFLKKSVVALRQLLPNSQSFIENCVKEVSGDVVISSCTMTTATSPVVTSTVSPVLVSGATAPRTLSVQQTLNPLAGPGVANTGVVTLHSVAPAAATGGTTAATVLLQTSKPLTTSVPNTVAAVSLQPENPVVSGAAVTLAIPSATFGEASATPLCLPSAKPAITSAGTKADKPAIGTPVQIVTQPSTLLPQAAGIPQTAKVKQLVVQQPSGSSVNHVTSISHSSPLSTQNCGQKTPVNAVMPTSSIIKQITLPGNKLLSLQAQRSSIQSNKIKENGPTCFRGEDDINDVTFMAEVNLDEENACILAAHSDFVGTLIQSCKEEPFLVIGALQKRILDIGKKHDITELNSDAVNLISHATQERLRGLLEKLTTIAQHRMTIYKGSENYILSTDTRSQLKFLEKLDQLEKQRKDLEEREMLLKAAKSRSNKEDPEQLRLKQKAKELQQLELAQIQYRDANLTALAAIGPRKKRPLESGNESFKDNPSTSGTSSLTATKPFRPRITRICLRDLIFCMEQEREMKYSRALYLALLK
